Experimental data taken from the supplement of paper PMC10849652.
Some of the results follow.

Sequences of proteins named here, by UniProt entry; tags and fusion partners are left off. A change or cut given only in a name is not applied to a line headed by its entry.
UniProt Q9BRF8, whole entry, looked up: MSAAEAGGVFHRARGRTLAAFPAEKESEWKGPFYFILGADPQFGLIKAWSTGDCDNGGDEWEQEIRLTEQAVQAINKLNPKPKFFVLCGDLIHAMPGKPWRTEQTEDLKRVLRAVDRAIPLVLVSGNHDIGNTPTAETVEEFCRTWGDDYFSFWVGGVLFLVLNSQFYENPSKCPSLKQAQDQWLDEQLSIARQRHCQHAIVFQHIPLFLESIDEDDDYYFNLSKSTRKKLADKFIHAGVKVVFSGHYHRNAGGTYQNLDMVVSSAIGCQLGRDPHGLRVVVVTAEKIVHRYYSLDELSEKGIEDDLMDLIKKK
UniProt P12074, whole entry, looked up: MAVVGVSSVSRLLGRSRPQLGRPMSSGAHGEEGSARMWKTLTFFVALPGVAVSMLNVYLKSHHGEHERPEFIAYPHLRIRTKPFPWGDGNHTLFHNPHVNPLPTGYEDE
UniProt Q9Y6N1: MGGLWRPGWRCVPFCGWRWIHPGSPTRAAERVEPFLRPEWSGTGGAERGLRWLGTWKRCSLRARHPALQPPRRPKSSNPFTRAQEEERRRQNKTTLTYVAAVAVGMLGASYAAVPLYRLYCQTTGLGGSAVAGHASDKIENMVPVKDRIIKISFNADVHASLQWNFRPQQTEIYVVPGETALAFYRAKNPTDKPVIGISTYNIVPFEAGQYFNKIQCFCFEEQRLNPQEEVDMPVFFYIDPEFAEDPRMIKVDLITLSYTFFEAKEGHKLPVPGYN
UniProt Q9P000, whole entry, looked up: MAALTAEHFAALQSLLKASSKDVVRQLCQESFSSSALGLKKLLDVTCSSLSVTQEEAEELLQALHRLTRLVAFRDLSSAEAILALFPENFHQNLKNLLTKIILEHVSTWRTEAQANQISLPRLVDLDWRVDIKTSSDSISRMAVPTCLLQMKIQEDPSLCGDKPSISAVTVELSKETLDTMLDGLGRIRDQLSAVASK
UniProt Q96SW2: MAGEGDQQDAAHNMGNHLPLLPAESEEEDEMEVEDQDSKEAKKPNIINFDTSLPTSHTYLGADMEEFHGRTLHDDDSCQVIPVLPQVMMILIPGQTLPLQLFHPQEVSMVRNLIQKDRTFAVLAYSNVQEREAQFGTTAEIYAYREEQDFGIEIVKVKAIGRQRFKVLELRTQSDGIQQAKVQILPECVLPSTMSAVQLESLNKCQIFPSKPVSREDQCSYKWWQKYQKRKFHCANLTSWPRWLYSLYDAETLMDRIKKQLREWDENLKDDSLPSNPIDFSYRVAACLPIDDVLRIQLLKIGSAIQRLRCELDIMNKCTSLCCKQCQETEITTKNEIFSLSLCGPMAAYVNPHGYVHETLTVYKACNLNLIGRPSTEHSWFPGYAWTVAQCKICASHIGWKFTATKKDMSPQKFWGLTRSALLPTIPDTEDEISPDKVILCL
UniProt Q9H0A8, whole entry, looked up: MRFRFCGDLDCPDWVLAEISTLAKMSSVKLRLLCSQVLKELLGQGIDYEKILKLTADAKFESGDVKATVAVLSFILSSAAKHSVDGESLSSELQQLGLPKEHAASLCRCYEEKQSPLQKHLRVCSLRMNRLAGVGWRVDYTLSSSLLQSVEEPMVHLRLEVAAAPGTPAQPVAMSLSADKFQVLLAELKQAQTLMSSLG
UniProt Q14019: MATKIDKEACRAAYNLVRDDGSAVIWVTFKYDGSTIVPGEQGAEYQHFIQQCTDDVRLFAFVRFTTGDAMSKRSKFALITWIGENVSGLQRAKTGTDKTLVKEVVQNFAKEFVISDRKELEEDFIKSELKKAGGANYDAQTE
UniProt Q92793, whole entry, looked up: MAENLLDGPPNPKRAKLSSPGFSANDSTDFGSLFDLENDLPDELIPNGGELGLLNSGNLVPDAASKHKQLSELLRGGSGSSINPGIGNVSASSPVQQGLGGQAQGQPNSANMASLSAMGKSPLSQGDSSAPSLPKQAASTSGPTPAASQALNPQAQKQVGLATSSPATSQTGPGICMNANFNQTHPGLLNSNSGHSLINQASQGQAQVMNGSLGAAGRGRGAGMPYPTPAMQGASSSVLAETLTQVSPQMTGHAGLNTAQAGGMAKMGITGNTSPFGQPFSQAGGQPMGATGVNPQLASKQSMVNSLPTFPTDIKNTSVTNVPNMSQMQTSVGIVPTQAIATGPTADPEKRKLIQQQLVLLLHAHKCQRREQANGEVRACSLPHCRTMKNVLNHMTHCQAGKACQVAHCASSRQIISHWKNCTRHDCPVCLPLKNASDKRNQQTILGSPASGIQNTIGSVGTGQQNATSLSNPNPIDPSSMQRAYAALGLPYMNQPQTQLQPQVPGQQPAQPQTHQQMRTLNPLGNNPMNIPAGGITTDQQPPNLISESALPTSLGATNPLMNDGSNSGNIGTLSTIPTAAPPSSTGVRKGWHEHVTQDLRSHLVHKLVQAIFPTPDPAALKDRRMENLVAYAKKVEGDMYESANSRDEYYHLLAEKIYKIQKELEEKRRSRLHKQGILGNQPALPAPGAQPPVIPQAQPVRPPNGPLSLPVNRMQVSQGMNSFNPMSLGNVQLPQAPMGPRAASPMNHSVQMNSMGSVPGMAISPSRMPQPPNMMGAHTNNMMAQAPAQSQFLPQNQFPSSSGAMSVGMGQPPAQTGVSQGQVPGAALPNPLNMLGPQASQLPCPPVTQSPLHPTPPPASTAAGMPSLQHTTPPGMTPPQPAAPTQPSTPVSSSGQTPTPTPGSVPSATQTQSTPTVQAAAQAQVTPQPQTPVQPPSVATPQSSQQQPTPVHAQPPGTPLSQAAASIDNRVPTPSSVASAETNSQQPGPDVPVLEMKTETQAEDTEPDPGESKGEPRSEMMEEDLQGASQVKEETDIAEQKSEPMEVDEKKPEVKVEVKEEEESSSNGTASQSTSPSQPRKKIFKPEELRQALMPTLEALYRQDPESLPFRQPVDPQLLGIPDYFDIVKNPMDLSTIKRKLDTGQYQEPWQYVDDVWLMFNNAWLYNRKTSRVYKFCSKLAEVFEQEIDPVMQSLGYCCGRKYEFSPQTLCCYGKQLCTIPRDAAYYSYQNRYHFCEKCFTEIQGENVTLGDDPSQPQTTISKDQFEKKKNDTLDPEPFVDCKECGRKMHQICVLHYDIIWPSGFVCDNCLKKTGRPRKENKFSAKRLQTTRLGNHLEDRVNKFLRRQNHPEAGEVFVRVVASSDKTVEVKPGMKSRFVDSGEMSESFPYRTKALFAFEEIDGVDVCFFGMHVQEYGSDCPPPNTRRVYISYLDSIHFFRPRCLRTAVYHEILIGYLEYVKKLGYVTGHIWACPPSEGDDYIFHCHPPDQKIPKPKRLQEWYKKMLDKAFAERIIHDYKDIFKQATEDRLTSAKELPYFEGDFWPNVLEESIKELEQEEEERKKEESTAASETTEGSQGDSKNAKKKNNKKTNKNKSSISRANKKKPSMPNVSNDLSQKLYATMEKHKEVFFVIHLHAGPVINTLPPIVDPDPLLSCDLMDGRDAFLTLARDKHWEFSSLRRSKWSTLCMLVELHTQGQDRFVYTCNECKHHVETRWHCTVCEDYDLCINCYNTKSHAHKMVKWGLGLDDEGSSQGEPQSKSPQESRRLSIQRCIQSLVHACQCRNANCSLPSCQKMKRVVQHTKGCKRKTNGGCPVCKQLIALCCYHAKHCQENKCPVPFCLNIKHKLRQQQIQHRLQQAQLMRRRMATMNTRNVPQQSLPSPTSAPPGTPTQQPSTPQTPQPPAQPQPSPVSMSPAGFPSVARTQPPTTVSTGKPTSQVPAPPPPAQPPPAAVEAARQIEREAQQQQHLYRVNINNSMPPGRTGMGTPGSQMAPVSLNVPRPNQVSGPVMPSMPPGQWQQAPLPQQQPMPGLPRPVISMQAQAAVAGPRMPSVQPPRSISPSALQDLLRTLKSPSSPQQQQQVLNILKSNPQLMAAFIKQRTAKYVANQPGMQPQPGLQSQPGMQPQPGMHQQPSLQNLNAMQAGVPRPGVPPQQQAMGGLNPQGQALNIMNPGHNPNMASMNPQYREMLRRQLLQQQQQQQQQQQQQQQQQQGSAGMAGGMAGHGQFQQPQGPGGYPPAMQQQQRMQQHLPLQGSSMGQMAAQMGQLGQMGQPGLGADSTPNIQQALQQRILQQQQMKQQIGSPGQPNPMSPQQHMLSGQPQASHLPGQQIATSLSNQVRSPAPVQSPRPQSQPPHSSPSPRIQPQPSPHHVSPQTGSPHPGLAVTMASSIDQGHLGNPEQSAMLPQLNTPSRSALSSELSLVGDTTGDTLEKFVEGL
UniProt Q9ULV4, whole entry, looked up: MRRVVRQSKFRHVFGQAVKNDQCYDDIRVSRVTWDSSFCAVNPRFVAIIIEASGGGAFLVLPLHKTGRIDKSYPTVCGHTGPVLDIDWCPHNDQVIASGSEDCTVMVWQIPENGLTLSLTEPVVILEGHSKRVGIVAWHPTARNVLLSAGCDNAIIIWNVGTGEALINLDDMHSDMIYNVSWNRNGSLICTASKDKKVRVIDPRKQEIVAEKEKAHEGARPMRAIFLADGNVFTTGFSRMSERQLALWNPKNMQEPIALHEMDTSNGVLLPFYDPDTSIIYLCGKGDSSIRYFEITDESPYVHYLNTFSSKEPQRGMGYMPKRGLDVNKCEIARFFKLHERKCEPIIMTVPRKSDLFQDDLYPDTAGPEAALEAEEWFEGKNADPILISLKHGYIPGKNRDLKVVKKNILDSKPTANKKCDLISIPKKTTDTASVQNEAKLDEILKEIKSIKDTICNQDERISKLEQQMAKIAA
UniProt Q8IYK4: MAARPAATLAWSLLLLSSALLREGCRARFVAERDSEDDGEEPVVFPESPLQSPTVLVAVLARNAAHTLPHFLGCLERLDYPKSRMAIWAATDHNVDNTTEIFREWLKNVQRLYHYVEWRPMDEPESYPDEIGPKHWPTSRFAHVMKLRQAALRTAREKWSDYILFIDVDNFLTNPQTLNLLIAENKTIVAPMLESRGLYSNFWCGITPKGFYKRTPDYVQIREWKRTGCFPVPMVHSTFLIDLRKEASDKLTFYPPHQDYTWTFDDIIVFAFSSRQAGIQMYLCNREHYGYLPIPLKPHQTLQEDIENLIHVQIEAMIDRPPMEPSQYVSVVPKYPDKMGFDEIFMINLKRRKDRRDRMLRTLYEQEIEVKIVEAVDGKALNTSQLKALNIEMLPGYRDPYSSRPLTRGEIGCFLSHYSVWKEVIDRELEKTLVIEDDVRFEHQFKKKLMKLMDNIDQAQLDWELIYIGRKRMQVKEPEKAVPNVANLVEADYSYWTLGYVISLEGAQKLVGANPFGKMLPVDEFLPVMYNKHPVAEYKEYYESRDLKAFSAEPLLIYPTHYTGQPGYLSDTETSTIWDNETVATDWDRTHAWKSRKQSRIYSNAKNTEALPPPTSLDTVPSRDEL
UniProt Q9Y6G5, whole entry, looked up: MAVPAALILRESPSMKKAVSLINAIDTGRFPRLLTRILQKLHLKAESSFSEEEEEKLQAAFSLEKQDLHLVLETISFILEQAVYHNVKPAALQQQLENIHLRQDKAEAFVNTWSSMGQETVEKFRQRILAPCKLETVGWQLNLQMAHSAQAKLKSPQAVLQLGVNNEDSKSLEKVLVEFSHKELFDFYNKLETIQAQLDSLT
UniProt Q17RY0: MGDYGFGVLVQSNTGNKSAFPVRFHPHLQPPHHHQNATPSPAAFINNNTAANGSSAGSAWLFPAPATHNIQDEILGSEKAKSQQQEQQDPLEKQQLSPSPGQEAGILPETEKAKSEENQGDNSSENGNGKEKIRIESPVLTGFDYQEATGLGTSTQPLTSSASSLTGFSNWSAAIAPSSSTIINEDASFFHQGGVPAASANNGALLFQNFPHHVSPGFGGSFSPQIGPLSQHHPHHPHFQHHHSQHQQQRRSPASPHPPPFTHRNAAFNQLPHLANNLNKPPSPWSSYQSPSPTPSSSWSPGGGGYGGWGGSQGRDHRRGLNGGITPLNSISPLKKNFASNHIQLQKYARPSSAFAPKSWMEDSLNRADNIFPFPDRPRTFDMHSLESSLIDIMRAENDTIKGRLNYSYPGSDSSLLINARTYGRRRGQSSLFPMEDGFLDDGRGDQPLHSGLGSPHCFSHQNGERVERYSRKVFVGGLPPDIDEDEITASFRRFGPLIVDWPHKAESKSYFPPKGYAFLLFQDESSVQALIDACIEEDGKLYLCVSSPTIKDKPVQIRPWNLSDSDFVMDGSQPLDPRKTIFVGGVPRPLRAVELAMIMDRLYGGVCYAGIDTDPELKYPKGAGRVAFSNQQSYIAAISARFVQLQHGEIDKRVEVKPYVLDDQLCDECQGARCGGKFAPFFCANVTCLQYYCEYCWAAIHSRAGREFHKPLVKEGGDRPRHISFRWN
UniProt Q9NX08, whole entry, looked up: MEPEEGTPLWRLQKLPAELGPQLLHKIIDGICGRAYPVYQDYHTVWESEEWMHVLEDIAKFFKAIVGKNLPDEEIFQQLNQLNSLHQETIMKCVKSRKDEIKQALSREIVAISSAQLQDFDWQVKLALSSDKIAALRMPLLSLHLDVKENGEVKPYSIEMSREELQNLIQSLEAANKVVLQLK

Assays:
Test in all cases: log2 fold change, soluble protein after heating vs DMSO (PISA); higher = thermal stabilisation; K562 cells, 10 uM, 30 min; active = over 0.2 and 3.5 SD of the protein, either way, in both replicates (recomputed)
saracatinib = compound: CN1CCN(CCOc2cc(OC3CCOCC3)c3c(Nc4c(Cl)ccc5c4OCO5)ncnc3c2)CC1 [saracatinib]
Summary of the method: (§1)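 K562 cells at 2×10^6 cells/mL were treated with 10 μM compound for 30 min. Aliquots were heated for 3 min across 48°C-58°C, pooled, and extracted in PBS with 0.5% NP-40 at 4°C; soluble protein was the supernatant after 21,000xg for 90 min. Soluble protein was quantified by TMTpro 16plex LC-MS/MS with channel sums equalised, and reported as log2 fold change in thermal stability against DMSO controls, with values from duplicates.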

sotrastaurin = compound: CN1CCN(c2nc(C3=C(c4c[nH]c5ccccc45)C(=O)NC3=O)c3ccccc3n2)CC1 [sotrastaurin]
Summary of the method: as §1

alvocidib = compound: CN1CC[C@H](c2c(O)cc(O)c3c(=O)cc(-c4ccccc4Cl)oc23)[C@H](O)C1 [alvocidib]
Summary of the method: as §1

Tubastatin A = compound: CN1CCc2c(c3ccccc3n2Cc2ccc(C(=O)NO)cc2)C1 [Tubastatin A]
Summary of the method: as §1

[1] = compound: CNC(=O)C1=CC=CC=C1NC2=NC(=NC=C2Cl)NC3=C(C=C(C=C3)N4CCOCC4)OC
Summary of the method: as §1

defactinib = compound: CNC(=O)c1ccc(Nc2ncc(C(F)(F)F)c(NCc3nccnc3N(C)S(C)(=O)=O)n2)cc1 [defactinib]
Summary of the method: as §1

rucaparib = compound: CNCc1ccc(-c2[nH]c3cc(F)cc4c3c2CCNC4=O)cc1 [rucaparib]
Summary of the method: as §1

[2] = compound: CNc1nc(-c2ccc3c(N)n[nH]c3c2)cc(N2C[C@@H](C(=O)NC3CCCCC3)CC[C@H]2C)n1
Summary of the method: as §1

encorafenib = compound: COC(=O)N[C@@H](C)CNc1nccc(-c2cn(C(C)C)nc2-c2cc(Cl)cc(NS(C)(=O)=O)c2F)n1 [encorafenib]
Summary of the method: as §1

[3] = compound: COC(=O)[C@H](CCSC)NC(=O)C1=C(C=C(C=C1)NC[C@H](CS)N)C2=CC=CC=C2
Summary of the method: as §1

[4] = compound: COC1=CC=C(C=C1)CN2C=CC3=C2C=C(C=C3)C(=O)NO
Summary of the method: as §1

filanesib = compound: CON(C)C(=O)N1N=C(c2cc(F)ccc2F)S[C@@]1(CCCN)c1ccccc1 [filanesib]
Summary of the method: as §1

zotarolimus = compound: CO[C@H]1C[C@@H]2CC[C@@H](C)[C@@](O)(O2)C(=O)C(=O)N2CCCC[C@H]2C(=O)O[C@H]([C@H](C)C[C@@H]2CC[C@H](n3cnnn3)[C@H](OC)C2)CC(=O)[C@H](C)/C=C(\C)[C@@H](O)[C@@H](OC)C(=O)[C@H](C)C[C@H](C)/C=C/C=C/C=C/1C [zotarolimus]
Summary of the method: as §1

idasanutlin = compound: COc1cc(C(=O)O)ccc1NC(=O)[C@@H]1N[C@@H](CC(C)(C)C)[C@](C#N)(c2ccc(Cl)cc2F)[C@H]1c1cccc(Cl)c1F [idasanutlin]
Summary of the method: as §1

alisertib = compound: COc1cc(Nc2ncc3c(n2)-c2ccc(Cl)cc2C(c2c(F)cccc2OC)=NC3)ccc1C(=O)O [alisertib]
Summary of the method: as §1

[5] = compound: COc1cc2nc(-c3cc(F)ccc3O)nc(N[C@@H]3CNC[C@H]3C(C)(C)O)c2cc1OC
Summary of the method: as §1

gefitinib = compound: COc1cc2ncnc(Nc3ccc(F)c(Cl)c3)c2cc1OCCCN1CCOCC1 [gefitinib]
Summary of the method: as §1

[6] = compound: COc1cccc2cc(-c3nc([C@H]4CC[C@H](C(=O)O)CC4)n4ncnc(N)c34)[nH]c12
Summary of the method: as §1

lapatinib = compound: CS(=O)(=O)CCNCc1ccc(-c2ccc3ncnc(Nc4ccc(OCc5cccc(F)c5)c(Cl)c4)c3c2)o1 [lapatinib]
Summary of the method: as §1

pictilisib = compound: CS(=O)(=O)N1CCN(Cc2cc3nc(-c4cccc5[nH]ncc45)nc(N4CCOCC4)c3s2)CC1 [pictilisib]
Summary of the method: as §1

Measured: log2 fold change

CPPED1 (UniProt Q9BRF8)
inactive: saracatinib 0.029 | sotrastaurin 0.023 | alvocidib 0.001 | Tubastatin A 0.047 | [1] -0.062 | defactinib -0.013 | rucaparib -0.085 | [2] -0.077 | encorafenib 0.032 | [3] 0.02 | [4] 0.013 | filanesib -0.035 | zotarolimus -0.052 | idasanutlin 0.016 | alisertib -0.019 | [5] 0.083 | gefitinib 0.02 | [6] 0.037 | lapatinib -0.032 | pictilisib 0.045

COX6A1 (UniProt P12074)
inactive: saracatinib -0.279 | sotrastaurin 0.008 | alvocidib -0.059 | Tubastatin A -0.008 | [1] 0.059 | defactinib -0.169 | rucaparib -0.203 | [2] 0.007 | encorafenib 0.074 | [3] 0.117 | [4] 0.133 | filanesib 0.175 | zotarolimus 0.158 | idasanutlin 0.085 | alisertib 0.021 | [5] -0.068 | gefitinib 0.111 | [6] 0.117 | lapatinib -0.014

COLGALT1 (UniProt Q8NBJ5)
inactive: saracatinib -0.125 | sotrastaurin -0.071 | alvocidib 0.085 | Tubastatin A 0.039 | [1] -0.004 | defactinib 0.103 | rucaparib 0.034 | [2] 0.051 | encorafenib 0.114 | [3] -0.022 | [4] -0.042 | filanesib 0.089 | zotarolimus 0.079 | idasanutlin 0.047 | alisertib -0.128 | [5] -0.002 | gefitinib -0.001 | [6] -0.117 | lapatinib 0.092 | pictilisib -0.07

COX11 (UniProt Q9Y6N1)
inactive: saracatinib -0.054 | sotrastaurin 0.067 | alvocidib -0.082 | Tubastatin A -0.128 | [1] 0.01 | defactinib -0.043 | rucaparib -0.021 | [2] -0.009 | encorafenib 0.003 | [3] -0.141 | [4] 0.083 | filanesib -0.07 | zotarolimus 0.11 | idasanutlin -0.017 | alisertib -0.023 | [5] 0.042 | gefitinib 0.017 | [6] 0.08 | lapatinib -0.013 | pictilisib 0.039

COMMD9 (UniProt Q9P000)
inactive: saracatinib -0.013 | sotrastaurin -0.007 | alvocidib -0.048 | Tubastatin A 0.072 | [1] -0.012 | defactinib -0.039 | rucaparib -0.101 | [2] 0.028 | encorafenib 0.01 | [3] -0.018 | [4] -0.107 | filanesib 0.091 | zotarolimus 0.027 | idasanutlin -0.102 | alisertib 0.013 | [5] -0.21 | gefitinib 0.02 | [6] 0.007 | lapatinib -0.152 | pictilisib 0.086

CRBN (UniProt Q96SW2)
inactive: saracatinib 0.028 | sotrastaurin 0.077 | alvocidib 0.012 | Tubastatin A -0.05 | [1] -0.004 | defactinib -0.01 | rucaparib -0.024 | [2] -0.058 | encorafenib -0.005 | [3] 0.035 | [4] -0.005 | filanesib -0.004 | zotarolimus -0.086 | idasanutlin 0.044 | alisertib -0.053 | [5] -0.013 | gefitinib -0.007 | [6] 0.076 | lapatinib 0.064 | pictilisib 0.049

COMMD4 (UniProt Q9H0A8)
inactive: saracatinib 0.036 | sotrastaurin -0.048 | alvocidib -0.175 | Tubastatin A 0.045 | [1] -0.055 | defactinib -0.076 | rucaparib 0.024 | [2] -0.008 | encorafenib 0.079 | [3] -0.052 | [4] 0.272 | filanesib 0.031 | zotarolimus -0.058 | idasanutlin -0.049 | alisertib -0.011 | gefitinib 0.013 | [6] 0.003 | pictilisib 0.136

COTL1 (UniProt Q14019)
inactive: saracatinib -0.019 | sotrastaurin -0.018 | alvocidib -0.052 | Tubastatin A -0.009 | [1] 0.024 | defactinib -0.046 | rucaparib -0.094 | [2] -0.01 | encorafenib 0.02 | [3] -0.019 | [4] 0.011 | filanesib 0.024 | zotarolimus 0.016 | idasanutlin -0.09 | alisertib -0.056 | [5] -0.006 | gefitinib 0.015 | [6] 0.031 | lapatinib -0.009 | pictilisib 0.055

CPED1 (UniProt A4D0V7)
inactive: saracatinib -0.163 | sotrastaurin -0.021 | alvocidib -0.011 | Tubastatin A 0.039 | [1] 0.027 | defactinib -0.004 | rucaparib 0.161 | [2] 0.042 | encorafenib 0.209 | [3] -0.005 | [4] -0.059 | filanesib 0.175 | zotarolimus -0.004 | idasanutlin 0.09 | alisertib -0.018 | [5] -0.02 | gefitinib 0.08 | [6] -0.051 | lapatinib 0.139 | pictilisib -0.051

CREBBP (UniProt Q92793)
inactive: saracatinib 0.006 | sotrastaurin -0.007 | alvocidib -0.045 | Tubastatin A 0.028 | [1] -0.009 | defactinib -0.069 | rucaparib -0.034 | [2] -0.001 | encorafenib 0.021 | [3] -0.038 | [4] 0.025 | filanesib 0.003 | zotarolimus 0.017 | idasanutlin -0.04 | alisertib -0.023 | [5] 0.035 | gefitinib 0.063 | [6] 0.017 | lapatinib 0.02 | pictilisib 0.038

CPNE3 (UniProt O75131)
inactive: saracatinib 0.042 | sotrastaurin -0.034 | alvocidib -0.067 | Tubastatin A -0.08 | [1] 0.009 | defactinib -0.065 | rucaparib -0.027 | [2] -0.017 | encorafenib 0.032 | [3] 0.017 | [4] 0.025 | filanesib 0.02 | zotarolimus 0.049 | idasanutlin -0.009 | alisertib 0.031 | [5] 0.054 | gefitinib 0.008 | [6] 0.025 | lapatinib 0.014 | pictilisib 0.017

CORO1C isoform 3 (UniProt Q9ULV4)
inactive: saracatinib 0.032 | sotrastaurin -0.089 | alvocidib 0.023 | Tubastatin A 0 | [1] 0.017 | defactinib -0.028 | rucaparib 0.002 | [2] -0.094 | encorafenib 0.034 | [3] -0.03 | [4] 0.055 | filanesib 0.017 | zotarolimus 0.038 | idasanutlin 0.011 | alisertib -0.066 | [5] 0.07 | gefitinib 0.09 | [6] -0.003 | lapatinib 0.012 | pictilisib -0.097

COLGALT2 (UniProt Q8IYK4)
inactive: saracatinib -0.125 | sotrastaurin -0.048 | alvocidib 0.059 | Tubastatin A 0.043 | [1] -0.015 | defactinib 0.094 | rucaparib 0.02 | [2] 0.007 | encorafenib 0.095 | [3] -0.018 | [4] -0.062 | filanesib 0.128 | zotarolimus 0.055 | idasanutlin 0.054 | alisertib -0.115 | [5] -0.003 | gefitinib -0.015 | [6] -0.128 | lapatinib 0.087 | pictilisib -0.01

COMMD10 (UniProt Q9Y6G5)
inactive: saracatinib 0.067 | sotrastaurin -0.011 | alvocidib -0.041 | Tubastatin A 0.013 | [1] -0.007 | defactinib -0.033 | rucaparib -0.027 | [2] -0.053 | encorafenib 0.019 | [3] -0.049 | [4] -0.062 | filanesib 0.011 | zotarolimus 0.027 | idasanutlin -0.023 | alisertib -0.072 | [5] -0.055 | gefitinib 0.01 | [6] 0.015 | lapatinib 0.088 | pictilisib -0.007

CPEB4 (UniProt Q17RY0)
inactive: saracatinib 0.012 | sotrastaurin 0.069 | alvocidib 0.052 | Tubastatin A -0.005 | defactinib 0.076 | rucaparib 0.202 | [2] 0.007 | encorafenib 0.005 | [3] 0.068 | [4] -0.017 | filanesib 0.129 | zotarolimus -0.094 | idasanutlin 0.113 | alisertib -0.026 | [5] 0.097 | [6] -0.098 | lapatinib 0 | pictilisib 0.134

Reprinted from the entries so far (5 entries):
CPNE3 (UniProt O75131)
inactive: saracatinib 0.042 | sotrastaurin -0.034 | alvocidib -0.067 | Tubastatin A -0.08 | [1] 0.009 | defactinib -0.065 | rucaparib -0.027 | [2] -0.017 | encorafenib 0.032 | [3] 0.017 | [4] 0.025 | filanesib 0.02 | zotarolimus 0.049 | idasanutlin -0.009 | alisertib 0.031 | [5] 0.054 | gefitinib 0.008 | [6] 0.025 | lapatinib 0.014 | pictilisib 0.017

CORO1C isoform 3 (UniProt Q9ULV4)
inactive: saracatinib 0.032 | sotrastaurin -0.089 | alvocidib 0.023 | Tubastatin A 0 | [1] 0.017 | defactinib -0.028 | rucaparib 0.002 | [2] -0.094 | encorafenib 0.034 | [3] -0.03 | [4] 0.055 | filanesib 0.017 | zotarolimus 0.038 | idasanutlin 0.011 | alisertib -0.066 | [5] 0.07 | gefitinib 0.09 | [6] -0.003 | lapatinib 0.012 | pictilisib -0.097

COLGALT2 (UniProt Q8IYK4)
inactive: saracatinib -0.125 | sotrastaurin -0.048 | alvocidib 0.059 | Tubastatin A 0.043 | [1] -0.015 | defactinib 0.094 | rucaparib 0.02 | [2] 0.007 | encorafenib 0.095 | [3] -0.018 | [4] -0.062 | filanesib 0.128 | zotarolimus 0.055 | idasanutlin 0.054 | alisertib -0.115 | [5] -0.003 | gefitinib -0.015 | [6] -0.128 | lapatinib 0.087 | pictilisib -0.01

COMMD10 (UniProt Q9Y6G5)
inactive: saracatinib 0.067 | sotrastaurin -0.011 | alvocidib -0.041 | Tubastatin A 0.013 | [1] -0.007 | defactinib -0.033 | rucaparib -0.027 | [2] -0.053 | encorafenib 0.019 | [3] -0.049 | [4] -0.062 | filanesib 0.011 | zotarolimus 0.027 | idasanutlin -0.023 | alisertib -0.072 | [5] -0.055 | gefitinib 0.01 | [6] 0.015 | lapatinib 0.088 | pictilisib -0.007

CPEB4 (UniProt Q17RY0)
inactive: saracatinib 0.012 | sotrastaurin 0.069 | alvocidib 0.052 | Tubastatin A -0.005 | defactinib 0.076 | rucaparib 0.202 | [2] 0.007 | encorafenib 0.005 | [3] 0.068 | [4] -0.017 | filanesib 0.129 | zotarolimus -0.094 | idasanutlin 0.113 | alisertib -0.026 | [5] 0.097 | [6] -0.098 | lapatinib 0 | pictilisib 0.134

The results go on:

COMMD8 (UniProt Q9NX08)
inactive: saracatinib -0.033 | sotrastaurin -0.03 | alvocidib -0.066 | Tubastatin A 0.033 | [1] 0.063 | rucaparib 0.005 | [2] 0.092 | encorafenib 0.029 | [4] 0.127 | filanesib -0.048 | zotarolimus 0.076 | idasanutlin -0.04 | alisertib -0.034 | [5] -0.12 | gefitinib -0.009 | [6] -0.069 | lapatinib -0.073 | pictilisib 0.059
